Reference: the supplement of paper PMC6411743
± gives the standard deviation of the averaged measurements. The entries are a selection whose mix differs from that of the whole data set.

Chains of the proteins cited; added tags and fusions are not shown. Lines headed by an entry give the natural chain unless they say otherwise; changes in a name come on top.
UniProt O75947: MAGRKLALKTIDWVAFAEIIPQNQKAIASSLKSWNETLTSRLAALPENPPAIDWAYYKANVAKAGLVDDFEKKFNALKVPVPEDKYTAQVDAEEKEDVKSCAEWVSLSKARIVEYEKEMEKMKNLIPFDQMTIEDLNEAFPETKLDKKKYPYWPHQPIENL
UniProt O75175, whole entry: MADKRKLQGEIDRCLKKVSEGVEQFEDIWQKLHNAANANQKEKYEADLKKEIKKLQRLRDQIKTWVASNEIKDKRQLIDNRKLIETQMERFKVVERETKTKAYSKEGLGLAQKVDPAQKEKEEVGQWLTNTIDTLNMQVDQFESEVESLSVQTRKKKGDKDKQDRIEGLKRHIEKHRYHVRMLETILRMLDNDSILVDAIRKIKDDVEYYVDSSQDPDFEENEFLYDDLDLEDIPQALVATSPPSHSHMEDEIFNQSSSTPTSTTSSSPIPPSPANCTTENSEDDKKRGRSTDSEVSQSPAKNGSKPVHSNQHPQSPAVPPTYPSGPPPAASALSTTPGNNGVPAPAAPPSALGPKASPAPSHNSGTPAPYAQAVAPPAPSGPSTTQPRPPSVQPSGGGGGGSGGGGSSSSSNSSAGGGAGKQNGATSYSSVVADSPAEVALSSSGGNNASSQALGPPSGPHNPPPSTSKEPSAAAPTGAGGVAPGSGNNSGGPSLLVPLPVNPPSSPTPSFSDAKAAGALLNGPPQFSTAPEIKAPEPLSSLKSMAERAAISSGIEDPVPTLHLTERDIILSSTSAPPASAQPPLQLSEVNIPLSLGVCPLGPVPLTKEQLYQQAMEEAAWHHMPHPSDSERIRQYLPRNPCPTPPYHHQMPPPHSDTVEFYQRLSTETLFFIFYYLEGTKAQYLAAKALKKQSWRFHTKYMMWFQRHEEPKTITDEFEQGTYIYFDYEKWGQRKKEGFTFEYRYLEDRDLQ
UniProt O60244: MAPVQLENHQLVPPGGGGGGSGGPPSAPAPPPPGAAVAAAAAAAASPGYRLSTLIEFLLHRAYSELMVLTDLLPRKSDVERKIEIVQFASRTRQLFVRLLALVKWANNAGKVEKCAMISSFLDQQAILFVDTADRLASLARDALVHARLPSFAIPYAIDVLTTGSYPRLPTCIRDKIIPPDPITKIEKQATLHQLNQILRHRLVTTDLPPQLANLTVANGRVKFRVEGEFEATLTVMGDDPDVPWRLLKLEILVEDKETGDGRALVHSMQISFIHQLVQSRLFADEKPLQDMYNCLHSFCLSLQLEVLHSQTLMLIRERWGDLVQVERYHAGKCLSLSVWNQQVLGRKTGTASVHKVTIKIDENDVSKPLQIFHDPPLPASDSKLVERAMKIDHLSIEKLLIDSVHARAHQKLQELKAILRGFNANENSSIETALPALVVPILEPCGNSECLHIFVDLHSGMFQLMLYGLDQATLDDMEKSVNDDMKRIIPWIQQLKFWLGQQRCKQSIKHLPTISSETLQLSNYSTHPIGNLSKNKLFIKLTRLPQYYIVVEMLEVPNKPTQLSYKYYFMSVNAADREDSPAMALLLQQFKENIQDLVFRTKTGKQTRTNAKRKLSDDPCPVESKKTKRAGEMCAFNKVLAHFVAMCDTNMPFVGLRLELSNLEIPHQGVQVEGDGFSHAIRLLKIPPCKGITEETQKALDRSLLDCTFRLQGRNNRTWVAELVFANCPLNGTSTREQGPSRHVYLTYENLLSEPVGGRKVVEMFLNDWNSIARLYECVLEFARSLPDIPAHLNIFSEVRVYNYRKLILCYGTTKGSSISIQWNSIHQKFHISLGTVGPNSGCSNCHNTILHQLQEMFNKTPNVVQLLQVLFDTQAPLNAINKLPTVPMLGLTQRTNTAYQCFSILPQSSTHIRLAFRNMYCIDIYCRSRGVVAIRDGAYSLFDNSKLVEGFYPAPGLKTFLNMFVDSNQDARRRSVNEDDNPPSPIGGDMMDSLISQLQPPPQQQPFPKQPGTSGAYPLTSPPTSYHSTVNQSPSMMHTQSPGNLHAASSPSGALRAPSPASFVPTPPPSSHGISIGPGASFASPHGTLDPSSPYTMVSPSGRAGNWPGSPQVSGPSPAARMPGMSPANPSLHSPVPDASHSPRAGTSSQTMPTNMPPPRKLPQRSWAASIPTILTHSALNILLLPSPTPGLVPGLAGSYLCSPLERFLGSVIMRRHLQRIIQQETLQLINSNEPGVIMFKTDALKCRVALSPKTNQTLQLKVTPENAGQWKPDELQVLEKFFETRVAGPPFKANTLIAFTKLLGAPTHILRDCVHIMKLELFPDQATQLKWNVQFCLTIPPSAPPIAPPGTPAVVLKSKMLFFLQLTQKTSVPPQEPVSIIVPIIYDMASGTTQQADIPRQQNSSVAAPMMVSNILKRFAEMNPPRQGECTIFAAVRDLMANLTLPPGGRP
UniProt O94992, whole entry: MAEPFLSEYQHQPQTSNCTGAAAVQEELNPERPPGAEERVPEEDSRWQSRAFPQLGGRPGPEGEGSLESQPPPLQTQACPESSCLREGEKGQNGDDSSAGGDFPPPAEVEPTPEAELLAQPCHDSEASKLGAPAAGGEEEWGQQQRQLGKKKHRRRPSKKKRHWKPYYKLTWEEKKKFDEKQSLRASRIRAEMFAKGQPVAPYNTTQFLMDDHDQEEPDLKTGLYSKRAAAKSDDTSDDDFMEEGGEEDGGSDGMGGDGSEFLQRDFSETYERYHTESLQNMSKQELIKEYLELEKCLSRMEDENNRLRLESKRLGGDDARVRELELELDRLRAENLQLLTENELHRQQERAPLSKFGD
UniProt O43909: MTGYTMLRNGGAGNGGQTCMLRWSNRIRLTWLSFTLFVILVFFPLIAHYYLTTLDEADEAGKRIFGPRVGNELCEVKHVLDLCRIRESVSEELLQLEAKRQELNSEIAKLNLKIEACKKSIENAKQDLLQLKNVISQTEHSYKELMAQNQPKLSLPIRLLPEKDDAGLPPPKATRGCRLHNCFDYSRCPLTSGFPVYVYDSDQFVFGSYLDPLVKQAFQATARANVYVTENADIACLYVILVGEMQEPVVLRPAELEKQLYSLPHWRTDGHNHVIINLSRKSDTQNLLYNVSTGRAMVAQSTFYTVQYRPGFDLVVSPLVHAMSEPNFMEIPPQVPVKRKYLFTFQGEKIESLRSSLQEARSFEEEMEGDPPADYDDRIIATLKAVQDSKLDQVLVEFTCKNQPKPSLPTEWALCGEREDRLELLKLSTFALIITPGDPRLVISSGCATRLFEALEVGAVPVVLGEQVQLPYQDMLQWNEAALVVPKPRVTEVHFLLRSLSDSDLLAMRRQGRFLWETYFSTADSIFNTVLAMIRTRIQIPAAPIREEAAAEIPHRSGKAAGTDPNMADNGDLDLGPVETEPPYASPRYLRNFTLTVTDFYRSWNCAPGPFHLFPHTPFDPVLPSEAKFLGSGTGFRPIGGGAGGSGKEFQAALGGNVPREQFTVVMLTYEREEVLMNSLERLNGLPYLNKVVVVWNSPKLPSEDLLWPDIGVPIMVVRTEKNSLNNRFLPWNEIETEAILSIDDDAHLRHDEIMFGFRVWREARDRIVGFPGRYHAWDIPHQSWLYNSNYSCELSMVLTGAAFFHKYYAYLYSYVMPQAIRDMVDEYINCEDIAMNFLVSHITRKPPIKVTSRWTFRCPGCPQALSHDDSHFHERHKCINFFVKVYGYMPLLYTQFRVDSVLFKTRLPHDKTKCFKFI
UniProt O75688: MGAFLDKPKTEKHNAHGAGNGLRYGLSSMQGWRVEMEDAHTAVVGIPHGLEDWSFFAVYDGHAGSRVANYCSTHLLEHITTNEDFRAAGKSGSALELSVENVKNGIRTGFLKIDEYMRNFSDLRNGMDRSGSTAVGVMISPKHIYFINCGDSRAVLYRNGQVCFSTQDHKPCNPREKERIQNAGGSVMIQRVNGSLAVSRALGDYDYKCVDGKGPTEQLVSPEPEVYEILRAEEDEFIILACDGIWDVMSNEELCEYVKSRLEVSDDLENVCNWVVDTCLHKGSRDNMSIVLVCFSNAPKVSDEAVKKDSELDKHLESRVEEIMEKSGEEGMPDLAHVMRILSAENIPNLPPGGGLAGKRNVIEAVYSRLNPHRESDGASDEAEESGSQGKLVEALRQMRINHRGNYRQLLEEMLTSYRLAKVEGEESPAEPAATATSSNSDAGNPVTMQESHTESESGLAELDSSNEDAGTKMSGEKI
UniProt O95295: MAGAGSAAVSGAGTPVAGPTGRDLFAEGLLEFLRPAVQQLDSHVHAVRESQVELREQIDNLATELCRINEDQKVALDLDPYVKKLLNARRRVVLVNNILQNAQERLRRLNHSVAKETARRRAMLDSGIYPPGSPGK
UniProt O95202: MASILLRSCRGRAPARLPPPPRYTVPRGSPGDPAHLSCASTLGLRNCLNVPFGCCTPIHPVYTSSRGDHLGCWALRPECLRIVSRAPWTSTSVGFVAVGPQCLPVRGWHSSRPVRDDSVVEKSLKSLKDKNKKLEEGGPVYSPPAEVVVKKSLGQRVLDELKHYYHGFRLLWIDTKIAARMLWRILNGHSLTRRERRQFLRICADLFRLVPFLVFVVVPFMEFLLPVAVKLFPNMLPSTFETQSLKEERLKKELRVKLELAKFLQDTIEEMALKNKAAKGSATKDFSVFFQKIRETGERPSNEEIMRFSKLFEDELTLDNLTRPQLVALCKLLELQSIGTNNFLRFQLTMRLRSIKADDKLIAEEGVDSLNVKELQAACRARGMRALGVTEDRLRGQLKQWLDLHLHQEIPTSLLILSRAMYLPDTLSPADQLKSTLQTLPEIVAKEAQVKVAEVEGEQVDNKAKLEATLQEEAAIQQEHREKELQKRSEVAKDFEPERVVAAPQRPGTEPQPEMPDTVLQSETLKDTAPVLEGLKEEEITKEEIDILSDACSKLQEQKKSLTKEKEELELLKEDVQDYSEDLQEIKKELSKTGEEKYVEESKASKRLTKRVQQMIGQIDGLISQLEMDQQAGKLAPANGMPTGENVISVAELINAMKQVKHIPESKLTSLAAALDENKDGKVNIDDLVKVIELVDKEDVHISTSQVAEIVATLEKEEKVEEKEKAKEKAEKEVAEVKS
UniProt O60870: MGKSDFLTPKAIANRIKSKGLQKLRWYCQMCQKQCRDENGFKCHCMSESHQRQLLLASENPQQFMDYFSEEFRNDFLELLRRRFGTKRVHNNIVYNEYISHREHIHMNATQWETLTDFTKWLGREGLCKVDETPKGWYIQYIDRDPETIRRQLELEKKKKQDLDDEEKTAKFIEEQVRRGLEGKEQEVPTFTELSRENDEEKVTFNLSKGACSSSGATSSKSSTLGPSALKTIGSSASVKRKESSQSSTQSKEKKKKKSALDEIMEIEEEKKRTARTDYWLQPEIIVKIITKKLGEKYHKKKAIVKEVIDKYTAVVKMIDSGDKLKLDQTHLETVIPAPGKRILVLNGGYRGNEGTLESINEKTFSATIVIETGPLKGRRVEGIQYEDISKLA
UniProt O75475: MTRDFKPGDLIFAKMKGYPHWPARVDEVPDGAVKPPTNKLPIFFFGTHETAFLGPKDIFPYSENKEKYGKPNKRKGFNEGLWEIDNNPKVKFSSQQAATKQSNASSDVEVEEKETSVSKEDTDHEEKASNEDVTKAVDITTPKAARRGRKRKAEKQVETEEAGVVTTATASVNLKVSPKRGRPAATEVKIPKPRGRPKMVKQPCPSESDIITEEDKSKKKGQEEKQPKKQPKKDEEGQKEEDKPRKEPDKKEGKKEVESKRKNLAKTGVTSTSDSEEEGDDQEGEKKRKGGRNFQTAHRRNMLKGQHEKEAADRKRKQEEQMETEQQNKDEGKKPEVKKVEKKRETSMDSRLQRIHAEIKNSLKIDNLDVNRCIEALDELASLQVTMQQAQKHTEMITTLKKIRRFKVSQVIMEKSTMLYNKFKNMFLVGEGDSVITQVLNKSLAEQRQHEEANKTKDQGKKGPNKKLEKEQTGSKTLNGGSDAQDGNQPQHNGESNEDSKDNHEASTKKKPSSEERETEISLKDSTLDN
UniProt O60830: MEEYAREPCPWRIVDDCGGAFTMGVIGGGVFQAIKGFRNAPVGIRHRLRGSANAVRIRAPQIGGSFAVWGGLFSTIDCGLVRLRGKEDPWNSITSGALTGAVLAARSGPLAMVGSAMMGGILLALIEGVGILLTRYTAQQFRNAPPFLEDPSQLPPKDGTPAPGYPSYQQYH
UniProt O75844: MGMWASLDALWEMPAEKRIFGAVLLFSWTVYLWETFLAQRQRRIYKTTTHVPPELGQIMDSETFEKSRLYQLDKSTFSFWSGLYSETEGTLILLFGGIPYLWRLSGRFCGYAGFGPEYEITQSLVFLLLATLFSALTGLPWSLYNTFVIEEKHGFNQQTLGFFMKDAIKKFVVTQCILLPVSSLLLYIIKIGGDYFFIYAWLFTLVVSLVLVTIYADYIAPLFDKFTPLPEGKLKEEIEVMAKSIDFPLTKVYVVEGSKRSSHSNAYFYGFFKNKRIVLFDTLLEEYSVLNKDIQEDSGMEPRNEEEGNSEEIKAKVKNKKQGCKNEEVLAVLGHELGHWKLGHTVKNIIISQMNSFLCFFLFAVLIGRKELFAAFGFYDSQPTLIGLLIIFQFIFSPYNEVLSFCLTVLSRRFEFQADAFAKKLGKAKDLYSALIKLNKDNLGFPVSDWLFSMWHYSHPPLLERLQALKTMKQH

Compound: Nc1ncnc2c1ncn2[C@@H]1O[C@H](COP(=O)(O)OP(=O)(O)NP(=O)(O)O)[C@@H](O)[C@H]1O [adenylyl imidodiphosphate]
Assay: NP40-soluble protein abundance relative to vehicle (solubility fold change) (ratio); higher = more soluble protein in presence of AMP-PNP
Procedure, shortened: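 Eight concentrations, 0.1 to 10 mM, were tested on Jurkat crude lysate for 10 min at room temperature and then 3 min at 37 °C, in three independent experiments. The lysate was solubilised with 0.8% NP40 and benzonase, ultracentrifuged, and the supernatant TMT-labelled for LC-MS/MS. Each value is the fold change against the detergent-processed vehicle in its own replicate, from vsn-normalised intensities.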

Target	NP40-soluble protein abundance (concentration: 1mM)	NP40-soluble protein abundance (concentration: 2mM)	NP40-soluble protein abundance (concentration: 4mM)	NP40-soluble protein abundance (concentration: 6mM)	NP40-soluble protein abundance (concentration: 8mM)	NP40-soluble protein abundance (concentration: 10mM)
UniProt O95671 and related entries	1 ± 0.022	0.964 ± 0.029	1.02 ± 0.047	1.03 ± 0.06	1.04 ± 0.025	1.01 ± 0.042
TIPRL (UniProt O75663)	1.05 ± 0.065	1.03 ± 0.036	0.986 ± 0.013	0.985 ± 0.045	0.972 ± 0.062	1 ± 0.064
MAFK (UniProt O60675)	0.97 ± 0.037	1.01 ± 0.06	0.978 ± 0.036	1.01 ± 0.046	0.993 ± 0.025	1.02 ± 0.036
UniProt O75947	0.95 ± 0.042	0.963 ± 0.032	0.869 ± 0.021	0.87 ± 0.066	0.838 ± 0.064	0.834 ± 0.056
CAND2 (UniProt O75155)	0.973 ± 0.018	0.942 ± 0.027	0.986 ± 0.045	1 ± 0.066	1.01 ± 0.031	1.02 ± 0.023
UniProt O75037 and related entries	1.03 ± 0.042	1.06 ± 0.018	1.04 ± 0.05	1.01 ± 0.04	1 ± 0.032	1.04 ± 0.052
MAST3 (UniProt O60307)	1.01 ± 0.022	0.978 ± 0.011	0.9881 ± 0.00048	1.002 ± 0.01	1.016 ± 0.00092	1.02 ± 0.00096
IPO13 (UniProt O94829)	0.976 ± 0.016	0.977 ± 0.04	0.9573 ± 0.009	0.994 ± 0.046	0.965 ± 0.03	0.935 ± 0.015
IDH1 (UniProt O75874)	0.967 ± 0.017	0.925 ± 0.059	0.929 ± 0.032	0.941 ± 0.0025	0.935 ± 0.013	0.921 ± 0.026
UniProt O75381 and related entries	0.996 ± 0.023	1.024 ± 0.009	0.999 ± 0.046	0.968 ± 0.068	0.98 ± 0.073	1 ± 0.11
POLR1A (UniProt O95602)	1 ± 0.017	1 ± 0.086	1.07 ± 0.1	1.08 ± 0.12	1.07 ± 0.14	1.11 ± 0.14
CCDC22 (UniProt O60826)	0.993 ± 0.028	1.027 ± 0.008	1 ± 0.026	0.97 ± 0.042	0.95 ± 0.038	0.971 ± 0.043
UniProt O75175 and related entries	0.995 ± 0.033	1.09 ± 0.08	1.1 ± 0.062	1.16 ± 0.09	1.15 ± 0.1	1.21 ± 0.094
UniProt O95425 and related entries	0.952 ± 0.093	0.959 ± 0.14	0.929 ± 0.092	1.002 ± 0.0039	0.998 ± 0.046	0.999 ± 0.064
MED14 (UniProt O60244)	0.994 ± 0.028	0.989 ± 0.058	1.02 ± 0.065	1.02 ± 0.087	0.99 ± 0.072	1.04 ± 0.1
SMC2 (UniProt O95347)	0.983 ± 0.02	0.9867 ± 0.008	0.967 ± 0.014	0.967 ± 0.029	0.946 ± 0.018	0.957 ± 0.027
HEXIM1 (UniProt O94992)	1.05 ± 0.044	1.14 ± 0.075	1.11 ± 0.042	1.1 ± 0.032	1.14 ± 0.014	1.19 ± 0.03
UniProt O95219 and related entries	1.02 ± 0.014	1.02 ± 0.011	1.02 ± 0.04	1.01 ± 0.015	0.97 ± 0.029	0.98 ± 0.035
EXTL3 (UniProt O43909)	1.01 ± 0.033	1.01 ± 0.035	0.9978 ± 0.009	1.01 ± 0.022	1 ± 0.011	0.9971 ± 0.0096
UniProt O75398-5|O75398 and related entries	1.03 ± 0.061	1.06 ± 0.029	1.02 ± 0.016	1.03 ± 0.028	1.03 ± 0.011	1.04 ± 0.015
UniProt O75528 and related entries	1.03 ± 0.022	1.1 ± 0.089	1.05 ± 0.076	1.05 ± 0.058	1.02 ± 0.02	1.04 ± 0.046
PPM1B (UniProt O75688)	0.991 ± 0.032	0.991 ± 0.016	0.982 ± 0.038	0.966 ± 0.0059	0.957 ± 0.032	0.9644 ± 0.0034
NDUFS3 (UniProt O75489)	1.01 ± 0.048	0.972 ± 0.077	0.988 ± 0.08	0.926 ± 0.074	0.961 ± 0.089	0.943 ± 0.1
KBTBD11 (UniProt O94819)	0.993 ± 0.042	0.999 ± 0.031	0.99 ± 0.039	1.02 ± 0.048	1 ± 0.026	1.02 ± 0.042
PLOD3 (UniProt O60568)	0.974 ± 0.043	0.979 ± 0.071	1 ± 0.025	1.01 ± 0.038	1 ± 0.02	1.02 ± 0.027
UniProt O94842 and related entries	1.08 ± 0.019	1.08 ± 0.048	1.1 ± 0.01	1.06 ± 0.045	1.05 ± 0.051	1.06 ± 0.039

Target	NP40-soluble protein abundance (concentration: 1mM)	NP40-soluble protein abundance (concentration: 2mM)	NP40-soluble protein abundance (concentration: 4mM)	NP40-soluble protein abundance (concentration: 6mM)	NP40-soluble protein abundance (concentration: 8mM)	NP40-soluble protein abundance (concentration: 10mM)
ZBTB11 (UniProt O95625)	1.006 ± 0.006	1.02 ± 0.064	0.9913 ± 0.0086	0.9761 ± 0.0067	0.979 ± 0.045	0.974 ± 0.017
CLPX (UniProt O76031)	0.957 ± 0.062	0.969 ± 0.062	0.955 ± 0.074	0.909 ± 0.08	0.886 ± 0.074	0.923 ± 0.078
SNAPIN (UniProt O95295)	0.972 ± 0.015	0.97339 ± 0.0008	0.96 ± 0.032	0.97 ± 0.047	0.97 ± 0.013	0.9615 ± 0.0095
UniProt O94766 and related entries	0.964 ± 0.06	0.983 ± 0.055	0.994 ± 0.077	0.971 ± 0.048	0.994 ± 0.075	0.961 ± 0.11
LETM1 (UniProt O95202)	1.02 ± 0.017	1.08 ± 0.077	1.02 ± 0.036	1.011 ± 0.0039	0.989 ± 0.011	0.994 ± 0.04
KIN (UniProt O60870)	1.02 ± 0.031	1.03 ± 0.015	1.046 ± 0.0083	1.06 ± 0.03	1.05 ± 0.011	1.06 ± 0.012
SMARCA5 (UniProt O60264)	1.03 ± 0.038	1.04 ± 0.019	1.11 ± 0.083	1.21 ± 0.073	1.25 ± 0.098	1.26 ± 0.12
SURF6 (UniProt O75683)	1.05 ± 0.056	1.12 ± 0.092	1.1 ± 0.057	1.17 ± 0.095	1.14 ± 0.12	1.22 ± 0.088
SH3BP5 (UniProt O60239)	0.968 ± 0.021	1.04 ± 0.067	0.906 ± 0.052	0.964 ± 0.032	0.934 ± 0.042	0.961 ± 0.035
UniProt O60271 and related entries	1.04 ± 0.012	1.09 ± 0.038	1.04 ± 0.035	1.02 ± 0.023	0.977 ± 0.012	1.02 ± 0.041
CPD (UniProt O75976)	0.982 ± 0.015	1.04 ± 0.049	0.977 ± 0.017	0.9756 ± 0.0083	0.955 ± 0.025	0.998 ± 0.021
GMFG (UniProt O60234)	1.023 ± 0.007	1.07 ± 0.065	1.04 ± 0.018	1.03 ± 0.019	1.03 ± 0.024	1.01 ± 0.044
DNAJC13 (UniProt O75165)	1.02 ± 0.049	1 ± 0.055	1.08 ± 0.054	1.11 ± 0.068	1.17 ± 0.1	1.19 ± 0.16
UniProt O75475 and related entries	1.08 ± 0.028	1.21 ± 0.042	1.24 ± 0.056	1.34 ± 0.057	1.34 ± 0.024	1.37 ± 0.023
TOX (UniProt O94900)	0.962 ± 0.081	1.04 ± 0.15	0.953 ± 0.08	1.04 ± 0.044	0.994 ± 0.06	1.01 ± 0.047
PFDN1 (UniProt O60925)	1 ± 0.038	1.02 ± 0.068	0.94 ± 0.042	0.95 ± 0.056	0.876 ± 0.026	0.908 ± 0.044
UniProt O95167 and related entries	1.01 ± 0.018	1.03 ± 0.022	1.01 ± 0.016	0.9975 ± 0.0035	0.99 ± 0.013	1.027 ± 0.0014
RAB3D (UniProt O95716)	0.994 ± 0.039	0.981 ± 0.039	1.02 ± 0.039	1.01 ± 0.016	1.04 ± 0.041	1 ± 0.024
HERC2 (UniProt O95714)	1.02 ± 0.09	0.922 ± 0.17	1.04 ± 0.031	1.11 ± 0.032	1.15 ± 0.12	1.07 ± 0.15
UniProt O60763 and related entries	1.01 ± 0.015	1.03 ± 0.02	0.982 ± 0.016	0.9911 ± 0.0093	0.959 ± 0.011	0.975 ± 0.03
SASH3 (UniProt O75995)	1.02 ± 0.021	1.05 ± 0.052	1.01 ± 0.025	0.979 ± 0.013	0.963 ± 0.033	0.961 ± 0.026
UniProt O75164	0.979 ± 0.034	0.949 ± 0.039	0.971 ± 0.032	0.9648 ± 0.004	0.959 ± 0.029	0.959 ± 0.049
MRPS14 (UniProt O60783)	1 ± 0.087	0.9326 ± 0.0016	0.939 ± 0.014	0.929 ± 0.021	0.936 ± 0.082	0.92 ± 0.066
UniProt O60830 and related entries	1.03 ± 0.075	1.02 ± 0.025	1.04 ± 0.078	1.02 ± 0.069	1.02 ± 0.079	1.02 ± 0.07
ZMPSTE24 (UniProt O75844)	0.939 ± 0.087	0.891 ± 0.024	0.922 ± 0.076	0.946 ± 0.12	0.977 ± 0.096	0.932 ± 0.072
UniProt O95475	0.989 ± 0.047	1.02 ± 0.037	1.009 ± 0.0082	1.06 ± 0.066	1.12 ± 0.077	1.1 ± 0.066

A second format for part of the listing above.
Target,NP40-soluble protein abundance (concentration: 1mM),NP40-soluble protein abundance (concentration: 2mM),NP40-soluble protein abundance (concentration: 4mM),NP40-soluble protein abundance (concentration: 6mM),NP40-soluble protein abundance (concentration: 8mM),NP40-soluble protein abundance (concentration: 10mM)
SURF6 (UniProt O75683),1.05 ± 0.056,1.12 ± 0.092,1.1 ± 0.057,1.17 ± 0.095,1.14 ± 0.12,1.22 ± 0.088
PFDN1 (UniProt O60925),1 ± 0.038,1.02 ± 0.068,0.94 ± 0.042,0.95 ± 0.056,0.876 ± 0.026,0.908 ± 0.044
